± gives the standard deviation of the averaged measurements. The effect of the compound repeats well; differences between the knockouts mostly do not.
Legend:
HCC-38 = experiment: relative cell number vs DMSO control (72 h) (% of DMSO); higher = less growth inhibition (more cells)
Procedure: (§1)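 QMAP-Seq: a pool of 5 breast cancer cell lines (ZR-75-1, SKBR3, HCC-38, MDA-MB-231, BT-20), each carrying 12 doxycycline-inducible Cas9 sgRNA perturbations (11 knockouts plus non-targeting sgNT), was treated with compounds for 72 h at four 10-fold doses (10 nM-10 uM or 1 nM-1 uM range). Barcodes were amplified and sequenced, and cell number was interpolated from 293T spike-in standard curves. The result is expressed as % of the median of DMSO wells. Two biological replicates.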

MDA-MB-231 = experiment: as above
Procedure: as §1

O=C(c1ccc(/C=C/c2n[nH]c3ccccc23)cc1)N1CCNCC1 [KW2449]
relative cell number
Conditions	HCC-38	MDA-MB-231
sgRNA knockout: sgATF3, 10 nM	90.2 ± 7	105 ± 14
sgRNA knockout: sgATF3, 100 nM	87.1 ± 7	86.9 ± 28
sgRNA knockout: sgATF3, 1000 nM	81.8 ± 2.2	79.1 ± 5.6
sgRNA knockout: sgATF3, 10000 nM	38.24 ± 0.36	50.2 ± 8.6
sgRNA knockout: sgATF4, 10 nM	82 ± 5	94.7 ± 14
sgRNA knockout: sgATF4, 100 nM	89.4 ± 3.8	85.8 ± 23
sgRNA knockout: sgATF4, 1000 nM	75.7 ± 0.87	61.2 ± 40
sgRNA knockout: sgATF4, 10000 nM	40.4 ± 8.8	46.4 ± 9.7
sgRNA knockout: sgATF6, 10 nM	84.9 ± 14	87.8 ± 5.5
sgRNA knockout: sgATF6, 100 nM	88.7 ± 19	102 ± 11
sgRNA knockout: sgATF6, 1000 nM	103 ± 15	66.3 ± 25
sgRNA knockout: sgATF6, 10000 nM	36.1 ± 5	42.8 ± 5
sgRNA knockout: sgATG7, 10 nM	96 ± 4	84.7 ± 14
sgRNA knockout: sgATG7, 100 nM	86.4 ± 2.1	86.8 ± 19
sgRNA knockout: sgATG7, 1000 nM	80.86 ± 0.56	77.5 ± 5.1
sgRNA knockout: sgATG7, 10000 nM	36 ± 2.6	38.6 ± 0.86
sgRNA knockout: sgERN1, 10 nM	100 ± 6.1	106.5 ± 0.95
sgRNA knockout: sgERN1, 100 nM	92.1 ± 6.1	115 ± 34
sgRNA knockout: sgERN1, 1000 nM	84.3 ± 3.7	75.7 ± 12
sgRNA knockout: sgERN1, 10000 nM	40.8 ± 10	29.1 ± 14
sgRNA knockout: sgHSF1, 10 nM	86.8 ± 6	72.3 ± 22
sgRNA knockout: sgHSF1, 100 nM	97.3 ± 2.2	96.3 ± 23
sgRNA knockout: sgHSF1, 1000 nM	98.4 ± 4.1	79.5 ± 24
sgRNA knockout: sgHSF1, 10000 nM	40.7 ± 8.3	36 ± 9.3
sgRNA knockout: sgHSF2, 10 nM	85.8 ± 11	78.9 ± 4.9
sgRNA knockout: sgHSF2, 100 nM	97.7 ± 6.7	111 ± 4.6
sgRNA knockout: sgHSF2, 1000 nM	97.4 ± 3.3	95.5 ± 23
sgRNA knockout: sgHSF2, 10000 nM	40.7 ± 2.3	32.6 ± 5.3
sgRNA knockout: sgKEAP1, 10 nM	81.1 ± 18	95.4 ± 36
sgRNA knockout: sgKEAP1, 100 nM	83.4 ± 2.2	89 ± 39
sgRNA knockout: sgKEAP1, 1000 nM	93.9 ± 1.1	91.6 ± 7.9
sgRNA knockout: sgKEAP1, 10000 nM	46.6 ± 9.2	44.4 ± 3.5
sgRNA knockout: sgNFE2L2, 10 nM	91.3 ± 4.6	110 ± 3.6
sgRNA knockout: sgNFE2L2, 100 nM	82.8 ± 8.1	85.65 ± 0.63
sgRNA knockout: sgNFE2L2, 1000 nM	70.8 ± 2	95.3 ± 4.5
sgRNA knockout: sgNFE2L2, 10000 nM	35.1 ± 10	32.3 ± 5.7
sgRNA knockout: sgSLC35F2, 10 nM	95.6 ± 2.7	116 ± 26
sgRNA knockout: sgSLC35F2, 100 nM	83.9 ± 1.2	103 ± 14
sgRNA knockout: sgSLC35F2, 1000 nM	82.4 ± 5.8	73.3 ± 14
sgRNA knockout: sgSLC35F2, 10000 nM	33.8 ± 0.61	44.3 ± 6.7
sgRNA knockout: sgXBP1, 10 nM	87.5 ± 3.4	92.7 ± 16
sgRNA knockout: sgXBP1, 100 nM	85.9 ± 3.5	78.2 ± 24
sgRNA knockout: sgXBP1, 1000 nM	76.97 ± 0.32	72.7 ± 13
sgRNA knockout: sgXBP1, 10000 nM	38.5 ± 4.5	29.5 ± 2

CS(=O)(=O)CCNCc1ccc(-c2ccc3ncnc(Nc4ccc(OCc5cccc(F)c5)c(Cl)c4)c3c2)o1 [Lapatinib]
relative cell number
Conditions	HCC-38	MDA-MB-231
sgRNA knockout: sgATF3, 10 nM	95.3 ± 1.6	103 ± 24
sgRNA knockout: sgATF3, 100 nM	79.62 ± 0.65	86.5 ± 15
sgRNA knockout: sgATF3, 1000 nM	98.7 ± 5.6	110 ± 5.3
sgRNA knockout: sgATF3, 10000 nM	61.3 ± 2	38.3 ± 13
sgRNA knockout: sgATF4, 10 nM	95.3 ± 9.3	112 ± 8.6
sgRNA knockout: sgATF4, 100 nM	77.8 ± 3.6	102 ± 20
sgRNA knockout: sgATF4, 1000 nM	90.4 ± 14	81 ± 3.9
sgRNA knockout: sgATF4, 10000 nM	53.6 ± 2.2	38.4 ± 13
sgRNA knockout: sgATF6, 10 nM	84.91 ± 0.65	85.5 ± 28
sgRNA knockout: sgATF6, 100 nM	101 ± 14	106 ± 36
sgRNA knockout: sgATF6, 1000 nM	101 ± 12	87.5 ± 22
sgRNA knockout: sgATF6, 10000 nM	59.4 ± 4	31.4 ± 1.3
sgRNA knockout: sgATG7, 10 nM	87.7 ± 6.6	96.6 ± 5.7
sgRNA knockout: sgATG7, 100 nM	83.8 ± 3.3	85.5 ± 4.9
sgRNA knockout: sgATG7, 1000 nM	92.9 ± 11	98.39 ± 0.29
sgRNA knockout: sgATG7, 10000 nM	55.3 ± 1.3	41.9 ± 2.3
sgRNA knockout: sgERN1, 10 nM	91.9 ± 7.9	102 ± 35
sgRNA knockout: sgERN1, 100 nM	83.5 ± 3.8	84.19 ± 0.34
sgRNA knockout: sgERN1, 1000 nM	91.7 ± 20	89 ± 11
sgRNA knockout: sgERN1, 10000 nM	64.7 ± 2.4	36.6 ± 10
sgRNA knockout: sgHSF1, 10 nM	92 ± 7.1	87.3 ± 7.9
sgRNA knockout: sgHSF1, 100 nM	91.7 ± 3.7	80.1 ± 6.1
sgRNA knockout: sgHSF1, 1000 nM	110 ± 6.5	108 ± 11
sgRNA knockout: sgHSF1, 10000 nM	71.6 ± 2.3	26.3 ± 1.9
sgRNA knockout: sgHSF2, 10 nM	103 ± 1.4	96.93 ± 0.37
sgRNA knockout: sgHSF2, 100 nM	86.4 ± 2.2	86 ± 4.5
sgRNA knockout: sgHSF2, 1000 nM	102 ± 17	92.8 ± 26
sgRNA knockout: sgHSF2, 10000 nM	62.8 ± 3.5	29.6 ± 12
sgRNA knockout: sgKEAP1, 10 nM	93.8 ± 17	74.4 ± 2.4
sgRNA knockout: sgKEAP1, 100 nM	97.9 ± 11	101 ± 3.8
sgRNA knockout: sgKEAP1, 1000 nM	89.4 ± 2.8	88 ± 5
sgRNA knockout: sgKEAP1, 10000 nM	60.3 ± 4.5	33.7 ± 11
sgRNA knockout: sgNFE2L2, 10 nM	88.2 ± 20	87 ± 5.4
sgRNA knockout: sgNFE2L2, 100 nM	77.8 ± 5	91.6 ± 14
sgRNA knockout: sgNFE2L2, 1000 nM	87.9 ± 21	99 ± 37
sgRNA knockout: sgNFE2L2, 10000 nM	51.17 ± 0.11	33.3 ± 6.6
sgRNA knockout: sgSLC35F2, 10 nM	90.7 ± 1.5	107 ± 8.7
sgRNA knockout: sgSLC35F2, 100 nM	74.2 ± 3.2	83.7 ± 10
sgRNA knockout: sgSLC35F2, 1000 nM	88.8 ± 7.1	89.4 ± 10
sgRNA knockout: sgSLC35F2, 10000 nM	58.7 ± 4.2	32.8 ± 3.7
sgRNA knockout: sgXBP1, 10 nM	91.8 ± 16	97.4 ± 12
sgRNA knockout: sgXBP1, 100 nM	81.6 ± 3.2	86.2 ± 21
sgRNA knockout: sgXBP1, 1000 nM	83.9 ± 6.4	118 ± 35
sgRNA knockout: sgXBP1, 10000 nM	57 ± 2.4	32 ± 6.2

CCOc1cc2ncc(C#N)c(Nc3ccc(OCc4ccccn4)c(Cl)c3)c2cc1NC(=O)/C=C/CN(C)C [Neratinib]
relative cell number
Conditions	HCC-38	MDA-MB-231
sgRNA knockout: sgATF3, 10 nM	105 ± 4.3	102 ± 17
sgRNA knockout: sgATF3, 100 nM	93.4 ± 7.5	103 ± 12
sgRNA knockout: sgATF3, 1000 nM	91.9 ± 2.6	110 ± 18
sgRNA knockout: sgATF3, 10000 nM	53.3 ± 1.1	56.3 ± 19
sgRNA knockout: sgATF4, 10 nM	86 ± 5.8	90.1 ± 15
sgRNA knockout: sgATF4, 100 nM	102 ± 2.7	112 ± 16
sgRNA knockout: sgATF4, 1000 nM	95 ± 8.9	137 ± 41
sgRNA knockout: sgATF4, 10000 nM	49.2 ± 1.7	43.4 ± 21
sgRNA knockout: sgATF6, 10 nM	91.9 ± 14	114 ± 27
sgRNA knockout: sgATF6, 100 nM	102.2 ± 0.7	102 ± 44
sgRNA knockout: sgATF6, 1000 nM	97.26 ± 0.23	56.9 ± 4.3
sgRNA knockout: sgATF6, 10000 nM	52.6 ± 13	55.6 ± 20
sgRNA knockout: sgATG7, 10 nM	94.9 ± 12	95.6 ± 23
sgRNA knockout: sgATG7, 100 nM	97.2 ± 4.1	104 ± 10
sgRNA knockout: sgATG7, 1000 nM	88 ± 9.7	106 ± 17
sgRNA knockout: sgATG7, 10000 nM	55 ± 3.2	54.6 ± 2.4
sgRNA knockout: sgERN1, 10 nM	83.4 ± 4.6	111 ± 14
sgRNA knockout: sgERN1, 100 nM	93.1 ± 12	99.6 ± 6.6
sgRNA knockout: sgERN1, 1000 nM	96.3 ± 5.8	100 ± 15
sgRNA knockout: sgERN1, 10000 nM	49.95 ± 0.086	56.1 ± 2.4
sgRNA knockout: sgHSF1, 10 nM	110 ± 2.3	99.2 ± 4.7
sgRNA knockout: sgHSF1, 100 nM	96.8 ± 6.8	115 ± 28
sgRNA knockout: sgHSF1, 1000 nM	92.8 ± 5.4	82 ± 24
sgRNA knockout: sgHSF1, 10000 nM	50 ± 7.3	39.8 ± 2.7
sgRNA knockout: sgHSF2, 10 nM	99.2 ± 7.9	94.2 ± 11
sgRNA knockout: sgHSF2, 100 nM	110 ± 4.2	96.54 ± 0.78
sgRNA knockout: sgHSF2, 1000 nM	102 ± 7.7	84 ± 29
sgRNA knockout: sgHSF2, 10000 nM	46.1 ± 2.1	41 ± 9.6
sgRNA knockout: sgKEAP1, 10 nM	93 ± 7.6	82.2 ± 2.2
sgRNA knockout: sgKEAP1, 100 nM	113 ± 7.2	120 ± 30
sgRNA knockout: sgKEAP1, 1000 nM	87.7 ± 19	86 ± 17
sgRNA knockout: sgKEAP1, 10000 nM	53.7 ± 0.59	45 ± 5.2
sgRNA knockout: sgNFE2L2, 10 nM	82.7 ± 7.9	106 ± 8.9
sgRNA knockout: sgNFE2L2, 100 nM	97.4 ± 6.1	75 ± 11
sgRNA knockout: sgNFE2L2, 1000 nM	92.7 ± 11	88 ± 23
sgRNA knockout: sgNFE2L2, 10000 nM	50.2 ± 2	51.2 ± 3.9
sgRNA knockout: sgSLC35F2, 10 nM	97.5 ± 11	73.5 ± 21
sgRNA knockout: sgSLC35F2, 100 nM	102 ± 5.5	105 ± 12
sgRNA knockout: sgSLC35F2, 1000 nM	95.3 ± 13	81.9 ± 5.9
sgRNA knockout: sgSLC35F2, 10000 nM	44.56 ± 0.3	36.2 ± 14
sgRNA knockout: sgXBP1, 10 nM	85.4 ± 2.3	85.5 ± 12
sgRNA knockout: sgXBP1, 100 nM	97.9 ± 6.5	101 ± 21
sgRNA knockout: sgXBP1, 1000 nM	99.2 ± 16	108 ± 2.5
sgRNA knockout: sgXBP1, 10000 nM	51.4 ± 4.8	49 ± 4.6
